The DeepSol protein solubility set

Test: soluble on expression in E. coli; label from the status in PepcDB or PDB records

Sequence | soluble on expression in E. coli
MGSDKIHHHHHHMLRVTTLASSCTSFPLQVLRRRLTISSLTSFQPTTKTQVVVIGAGHAGCEAAAASSRTGAHTTLITPSLTDIGKCSCNPSIGGVGKGILVKEIDALDGLMGKVTDLAGVQFKMLNRSKGPAVWGPRAQIDRELYKKYMQRELSDKKAHPNLSLLQNKVADLILYDPGCGHKVIKGVVLDDGTQVGADQVIITTGTFLSAEIHIGDKRIAAGRIGEQPTYGISNTLQNEVGFQLGRLKTGTPARLAKESIDFSALEVQKGDALPVPMSFLNETVSVEPTKQLDCFGTHTTPQMHDFLRNNLHQSIHIQDTTIKGPRYCPSIEAKILRFPDRSSHKIWLEPEGFNSDVIYPNGISNSMPEDVQLQMMRLIPGMANVEILQPAYGVEYDYVDPRQLKPSLETKLVDGLFLAGQINGTTGYEEAAAQGIIAGINAGLLSRQEREQLVLKRSEAYIGVLIDDLINNGVIEPYRMFTSRSEFRISVRADNADFRLTPIGAQLGIISPVRLSQYSRDKHLYDETIRALQNFKLSSQKWSSLLQANIAPQAENRSAWEIFRFKDMDLHKLYECIPDLPINLLDIPMHVVTKINIQGKYEPYIVKQNQFVKAFQADENMLLPQDYDYRQLPTLSTECKLLLNRVQPLTIGQARRIQGITAAALFELYRVARSQANQSCKYPLIVSLYM | not soluble
MNCDTAQPWMMSSYHPSTTSDVFWTTTPSSTSTTPSSDNGIQQYSSISTSSGYAPANSPAKTAEVNQLGGVFVNGRPLPFEMRCKIVELSRQGTRPCDISRQLKISHGCVSKILTRFSENGTIMPGTIGGSRPRVTTPKVVEYIRSLKRSDPGIFAWEIRDRLISADICDRANLPSVSSISRILRNKNGGNSSSSSSSQLRYIRDQLAEQQQQQHLQQHQYMEYNNNELNQISGNLDYQVSSSNTPPSYDSYHFIAN | not soluble
MENRALDPGTRDSYGATSHLPNKGALAKVKNNFKDLMSKLTEGQYVLCRWTDGLYYLGKIKRVSSSKQSCLVTFEDNSKYWVLWKDIQHAGVPGEEPKCNICLGKTSGPLNEILICGKCGLGYHQQCHIPIAGSADQPLLTPWFCRRCIFALAVRVSLPSSPVPASPASSSGADQRLPSQSLSSKQKGHTWALETDSASATVLGQDL | soluble
MSLATPGCREGETYDVVVLGAGPVGQNVADRARAGGLRVAVVERELVGGECSYWACVPSKALLRPVIAISDARRVDGAREAVDGSINTAGVFGRRNRYVAHWDDTGQADWVSGIGATLIRGDGRLDGPRRVVVTKSSGESVALTARHAVVICTGSRPALPDLPGITEARPWTNRQATDNSTVPDRLAIVGAGGVGVEMATAWQGLGASVTLLARGSGLLPRMEPFVGELIGRGLADAGVDVRVGVSVRALGRPNPTGPVVLELDDGTELRVDEVLFATGRAPRTDDIGLETIGLTPGSWLDVDDTCRVRAVDDGWLYAAGDVNHRALLTHQGKYQARIAGTAIGARAAGRPLDTTSWGMHATTADHHAVPQAFFTDPEAAAVGLTADQAAQAGHRIKAIDVEIGDVVMGAKLFADGYTGRARMVVDVDRGHLLGVTMVGPGAAELLHSATVAVAGQVPIDRLWHAVPCFPTISELWLRLLESYRDSFYLLVEGHHHHHH | soluble
MSGGLAPSKSTVYVSNLPFSLTNNDLYRIFSKYGKVVKVTIMKDKDTRKSKGVAFILFLDKDSAQNCTRAINNKQLFGRVIKASIAI | soluble
GSMLSPKDILRKDLKLVHGYPMTCAFASNWEKIEQFHSRPDDIVIATYPKSGTTWVSEIIDMILNDGDIEKCKRGFITEKVPMLEMTLPGLRTSGIEQLEKNPSPRIVKTHLPTDLLPKSFWENNCKMIYLARNAKDVSVSYYHFDLMNNLQPFPGTWEEYLEKFLTGKVAYGSWFTHVKNWWKRKEEHPILFLYYEDMKENPKEEIKKIIRFLEKNLNDEILDRIIHHTSFEVMKDNPLVNYTHLPTTVMDHSKSPFMRKGTAGDWKNYFTVAQNEKFDAIYETEMSKTALQFRTEI | soluble
MCNLYRMEDKDWVSKWAQDAESLINLMPAYQMNPDQMGPIVRNTADGKKQLVHARWGLPSPIFVQKKAAEARADKLKAKGKAFDINELIRMEPDRGVTNVRKLNLPHWTRWFGVEHRCLVPVTSFAEPDPASKQEGGNVPNAWFARDEAKSLMFFAGIHVPQWKSVRKVRDGLTTDDLYGFLTTDPNDLVKPIHEKAMPVLLLTREETEIWMRAPWDEAKHLARPLPNDALIILSREPYGSSIVSKSGESEEQGRLLAAALEHHHHHH | soluble
MGSDKIHHHHHHMPAKLNSPSRYHGIYNAPHRAFLRSVGLTDEEIGKPLVAIATAWSEAGPCNFHTLALARVAKEGTKEAGLSPLAFPTMVVNDNIGMGSEGMRYSLVSRDLIADMVEAQFNAHAFDGLVGIGGCDKTTPGILMAMARLNVPSIYIYGGSAEPGYFMGKRLTIEDVHEAIGAYLAKRITENELYEIEKRAHPTLGTCSGLFTANTMGSMSEALGMALPGSASPTATSSRRVMYVKETGKALGSLIENGIKSREILTFEAFENAITTLMAMGGSTNAVLHLLAIAYEAGVKLTLDDFNRISKRTPYIASMKPGGDYVMADLDEVGGVPVVLKKLLDAGLLHGDVLTVTGKTMKQNLEQYKYPNVPHSHIVRDVKNPIKPRGGIVILKGSLAPEGAVIKVAATNVVKFEGKAKVYNSEDDAFKGVQSGEVSEGEVVIIRYEGPKGAPGMPEMLRVTAAIMGAGLNNVALVTDGRFSGATRGPMVGHVAPEAMVGGPIAIVEDGDTIVIDVESERLDLKLSEEEIKNRLKRWSPPSPRYKSGLLAKYASLVSQASMGAVTRPA | not soluble
MSLGLKNKIKGFIKERMPFVVRYVRSLKGAKNIYDEINHEIKEMLEAKKLHSLQEKALFNHDHQESVFLAIASLNNESFIERNKSIYKNSSLNYNYGGGGHLEDRVIHPTLTLPNPTHSGYFDYDKKSQNPKSPLNPWAFIRVKNEIVTLEESLFSMLPAIQRGVIGFNDCDDGSKEVILEFCKKFPSFIPISYPYEVMLKDCPSLWHQLYHYSNYTLSFIPKNEWVIKIDGDHVYDAKKLYESFYIPKSIKEVVMYSRINFVVQDFEVFVCNSGDFGFLDAWGDQWLFYNDCEPFEIWQHNDDIYEILKLKDKHHIKDKELMQWHFPLAKKRRNAIVDNDLIPLKEFKKHHADLIGTKIEESMLDEKRILEMYQKFNLAEREGHHHHHH | soluble
MVAITTAASRLGVAPYNESRPVELRPDFSLDDAKMVIRAVYRQVLGNDYIMDSERLKGAESLLTNGSISVREFVRTVAKSELYKKKFLYNNFQTRVIELNYKHLLGRAPFSEDEVIFHLDLYENQGFDADIDSYIDSVEYQENFGENIVPYYRFNNQVGDRTVGFTRMFRLYRGYANSDRSQLERSSSRLATELGQNTVSAIVGPSGSNAGWAYRPSRAGNLEHHHHHH | soluble
MSSTRFIASSLANVTSRRSVSLLVRRSQFSFAPQRGLISVIDKQQCRQITDYSAKDSRINSRKLRNHDGSNMDGASITAAALKSQGVEYMFGVVGFPVIEVGMAAQAHGIKYIGCRNEQAAAYAAQAMGYLTGKPVALLVVSGPGILHAIGGLANATVNCWPVVCIGGTADVDLENRGAFQEWSQQESVRNSCKHVSRPTSLHTIPAHIEKAVRCAMYGRPGAVYVDLPGNLVLTSTEEEISFPPQVPLPAPVSIPPIAEIEKAIDTLKSAKKPLVIVGKGAAWSERGATQVQQFLTKSKLPWLATPGGKGVASDLHPRFIGQARSLALREADTVFLIGARFNWILHFGLPPRFQKDVKVVQIDICPEEFHQNVKTEVPLLGDIGETLAELTPRLGDWTYDESTEWFKKLRENAEKNRAAVEKFVDDHSTPLNYYAAYQPIREFLANNDVIVINEGANTMDIGRTMMPSRLPKRRLDAGTFGTMGVGHGFSLAAALWARDHSPKTKVLVVQGDSAFGFSAMELETIARYNLPVVTVIINNSGIYRGLLPEDDKAIEGDRTLALPVLSLTAECRYEEMCKAFGGAGTVVRTVPEIKAALEKAFQKTDGPTVINALISTDSERKPQADHWLTRSKM | not soluble
AMTAGTTTTFPMSNHTRERVTVAKLTLENFYSNLILQHEERETRQKKLEVAMEEEGLADEEKKLRRSQHARKETEFLRLKRTRLGLDDFESLKVIGRGAFGEVRLVQKKDTGHIYAMKILRKSDMLEKEQVAHIRAERDILVEADGAWVVKMFYSFQDKRNLYLIMEFLPGGDMMTLLMKKDTLTEEETQFYISETVLAIDAIHQLGFIHRDIKPDNLLLDAKGHVKLSDFGLCTGLKKAHRTEFYRNLTHNPPSDFSFQNMNSKRKAETWKKNRRQLAYSTVGTPDYIAPEVFMQTGYNKLCDWWSLGVIMYEMLIGYPPFCSETPQETYRKVMNWKETLVFPPEVPISEKAKDLILRFCIDSENRIGNSGVEEIKGHPFFEGVDWEHIRERPAAIPIEIKSIDDTSNFDDFPESDILQPVPNTTEPDYKSKDWVFLNYTYKRFEGLTQRGSIPTYMKAGKL | soluble
MQKNIPSISCSPFPASRKIYQQSPLFSDVQVPLREISLTDGSAEKSLNIYDTSGPYTDNDIIIDITNGLPAISLPWLSKRADTEPYPARPVKPEDNGLLYDKTPPPAFKQKRPILRAKNGKAITQMAYARAGIITAEMEYVAIRENEGLTVKDQPKAQPDKICNGSIPEIYTAEFVRNEIACGRAIIPHNINHPECEPMIIGRNFRVKINANIGNSAVTSSMAEEVDKMVWAIRWGADTVMDLSTGRNIHNIREWIIRNSPVPIGTVPLYQALEKVQGIAENLTWDIFRDTLIEQAEQGVDYFTIHAGLRLPFIPLTIDRITGIVSRGGSIMAKWCLHHHKESFLYEHFDEICDIARTYDISLSLGDGLRPGSIADANDEAQFAELKTLGELTKVAWAKDVQVMIEGPGHVPMHKIKENMEQQLDLCHEAPFYTLGPLTTDIAPGYDHITSAIGAAMIGWFGTAMLCYVTPKEHLGLPDKNDVKTGVITYKIAAHAADLAKGLPRAQLRDNALSRARFDFRWYDQFNLSLDPETACAFHDETMPKEAHKLVHFCSMCGPKFCSMRISHDIRDTVHRKIKDEGMVAMAEKYQKNGDLYIDVSPPQKKIVNH | not soluble
MSDIQHQRMVTLCDDLKFLAVTDVYADLADAAAKQESSYIDYLEQVLKAENDVRQGRSRHTMAKLAGFPAIKTLEDYDFDFATGAPKQRILDLSAMAFLERRENVILLGPSGTGKTHLAIALGYRATQCGVKVRFISAADLMLQLESAQRQGRYKEVMRRSVLGPRLLIIDEIGYLPFSETQANLFFQVIAKRYETGSVILTSNLSFGEWEQAFGGNTALTSAMLDRLLHHAHVIQIRGDSYRLKEKRRAGILGQQLPTPQMDDLEHHHHHH | soluble
VSKGEELFTGVVPILVELDGDVNGHKFSVRGEGEGDATIGKLTLKFICTTGKLPVPWPTLVTTLGYGLQCFARYPDHMKQHDFFKSAMPEGYVQERTISFKDDGKYKTRAVVKFEGDTLVNRIELKGTDFKEDGNILGHKLEYNFNSHNVYITATRGTAAARPACKIPNDLKQKVMNHDKQKNGIKANFTVRHNVEDGSVQLADHYQQNTPIGDGPVLLPDNHYLSYQTVLSKDPNEKRDHMVLLEFVTAAGITLGMDELYK | soluble
RMKQLEDKVEELLSKNYHLENEVARLKKLVNSDGLTGLSNRRHFDEYLEMEWRRSLREQSQLSLLMIDVDYFKSYNDTFGHVAGDEALRQVAGAIREGCSRSSDLAARYGGEEFAMVLPGTSPGGARLLAEKVRRTVESLQISHDQPRPGSHLTVSIGVSTLVPGGGGQTFRVLIEMADQALYQAKNNGRNQVGLMEQPVPPAPAG | soluble
MASKNTSVVLGDHFQAFIDSQVADGRYGSASEVIRAGLRLLEENEAKLAALRAALIEGEESGFIEDFDFDAFIEERSRASAPQGFHEE | soluble
